PubChem BioAssay AID743121 | NCATS – 2013
Shown is one part, drawn at random, of about 26,000 deposited reagents. 167 of them (0.63%) count as active. 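Calls are per gene from RSA p-values that are not deposited; an individual active-marked siRNA can sensitise only weakly.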 A number with no mark means an inactive call. Further read-outs or replicates are left out here.

Test: 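Knock-downs that sensitise breast cancer cells to camptothecin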 (primary screen)
System: MDA-MB-231 cells, a human breast cancer line
Knock-down reagent: single siRNA against human genes, 20 nM siRNA (0.8 pmol per well)
Duration: 120 h (drug added 48 h after transfection, read 72 h later)
Challenge: camptothecin 20 nM (about EC30) for 72 h; vehicle 0.1% DMSO in parallel plates
Measured: 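Cell viability by ATP luminescence (CellTiter-Glo) as % of non-targeting siRNA wells, and the log2 ratio of viability without drug over viability with camptothecin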
Reading the numbers: log2 vehicle/camptothecin viability: higher = stronger sensitisation to camptothecin; viability with camptothecin: higher = more viable cells
Hit rule: 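Active genes have an RSA gene-level p-value below 0.001, computed from the ratios of their separate siRNAs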

Target gene | PubChem SID | log2 vehicle/camptothecin viability | viability with camptothecin (% of control)
GPR180 | SID164578764 | 0.246 | 85.5
GPR180 | SID164578767 | -0.0903 | 111
GPR180 | SID164578768 | -0.492 | 86.9
MLLT10 | SID164396063 | -0.629 | 92.6
MLLT10 | SID164396064 | -0.0694 | 57.7
MLLT10 | SID164396067 | 0.0879 | 86.2
MLLT10 | SID164396068 | -0.32 | 67.2
BPTF | SID164364281 | -0.316 | 62.4
BPTF | SID164364282 | -0.266 | 117
BPTF | SID164364283 | -0.355 | 90.7
BPTF | SID164364284 | -0.48 | 103
OR1G1 | SID164397323 | 0.149 | 91.9
OR1G1 | SID164397324 | -0.0755 | 48
OR1G1 | SID164397325 | 0.0743 | 73.2
OR1G1 | SID164397328 | 0.337 | 62
IL18RAP | SID164399963 | -0.531 | 56.7
IL18RAP | SID164399964 | -0.252 | 92.9
IL18RAP | SID164399965 | -0.582 | 81.5
IL18RAP | SID164399966 | 0.282 | 57
CLU | SID164358722 | -0.794 | 75.7
CLU | SID164358725 | -0.0268 | 88.4
CLU | SID164358726 | -0.234 | 98
ABCC6 | SID164353900 | 0.0584 | 65.6
ABCC6 | SID164353903 | -0.256 | 48.4
ABCC6 | SID164353904 | -0.214 | 89.5
ABCC6 | SID164353907 | -0.713 | 14.3
KISS1 | SID164372871 | 0.155 | 62.9
KISS1 | SID164372874 | 0.327 | 32.7
KISS1 | SID164372875 | -0.675 | 34.1
KISS1 | SID164372876 | 0.0546 | 64.8
PDPN | SID164412453 | -0.617 | 39.3
PDPN | SID164412455 | -0.0779 | 92
PDPN | SID164412456 | -0.304 | 73.2
PDPN | SID164412460 | 0.18 | 34.9
DLG5 | SID164402557 | 0.0934 | 69.9
DLG5 | SID164402560 | -0.765 | 78.1
DLG5 | SID164402561 | -1.02 | 32.4
DLG5 | SID164402562 | 0.233 | 34.7
FGFR2 | SID164364782 | -0.272 | 92.6
FGFR2 | SID164364786 | -0.116 | 118
FGFR2 | SID164364790 | -0.262 | 52
FGFR2 | SID164364792 | -0.661 | 84.4
TRPM1 | SID164375756 | 0.213 | 38.6
TRPM1 | SID164375759 | 0.716 | 28.9
TRPM1 | SID164375761 | -0.0716 | 76
TRPM1 | SID164375762 | -0.0977 | 109
UBLCP1 | SID164570357 | -0.45 | 84.3
UBLCP1 | SID164570359 | 0.0468 | 116
UBLCP1 | SID164570360 | 0.0392 | 102
UBLCP1 | SID164570361 | 0.19 | 82.6
HMGB2 | SID164369252 | 0.0855 | 42.1
HMGB2 | SID164369253 | -0.0163 | 93.8
HMGB2 | SID164369255 | 0.0146 | 56.7
HMGB2 | SID164369256 | -0.286 | 49.8
QRFPR | SID164543112 | 0.129 | 109
QRFPR | SID164543115 | -0.192 | 106
QRFPR | SID164543116 | -0.0716 | 105
QRFPR | SID164543117 | -0.511 | 83.5
USP13 | SID164400992 | 0.0172 | 111
USP13 | SID164400993 | -0.197 | 104
USP13 | SID164400995 | -0.428 | 70
USP13 | SID164400998 | 0.865 | 45.9
SIRT5 | SID164447843 | -0.263 | 72.8
SIRT5 | SID164447844 | 0.147 | 47.5
SIRT5 | SID164447846 | -0.627 | 69.8
SIRT5 | SID164447848 | -0.00057 | 62
FGF7 | SID164364682 | -0.13 | 108
FGF7 | SID164364686 | -0.0989 | 48.7
FGF7 | SID164364687 | -0.064 | 103
FGF7 | SID164364689 | 0.381 | 69.8

An excerpt from above, limited to “viability with camptothecin (% of control)”:
ABCC6 [SID164353904]: 89.5
ABCC6 [SID164353907]: 14.3
KISS1 [SID164372871]: 62.9
KISS1 [SID164372874]: 32.7
KISS1 [SID164372875]: 34.1
